No constants are given. Whether binding was seen depends on the method and setting. In cells and extracts the contact can be indirect. Some binding calls cover weakened binding; strength is not graded here.
Target: P2Y6 purinergic receptor (human (endogenous in THP-1)) (UniProt Q15077)
Assay: co-IP; THP-1 lysates (25 mM Tris-HCl, 150 mM NaCl, 1 mM EDTA, 1% NP-40, 5% glycerol) incubated with P2Y6 receptor antibody 16 h at 4°C, then protein G-agarose 6 h at 4°C; precipitate read by western blot; cells pre-treated with 100 μg/ml PLAG or DMSO for 1 h, then 200 μg/ml MSU crystals for 0, 7, 15, 30, 60 min

By UniProt entry, the sequences of proteins in these tests, tags left out.
UniProt Q15077: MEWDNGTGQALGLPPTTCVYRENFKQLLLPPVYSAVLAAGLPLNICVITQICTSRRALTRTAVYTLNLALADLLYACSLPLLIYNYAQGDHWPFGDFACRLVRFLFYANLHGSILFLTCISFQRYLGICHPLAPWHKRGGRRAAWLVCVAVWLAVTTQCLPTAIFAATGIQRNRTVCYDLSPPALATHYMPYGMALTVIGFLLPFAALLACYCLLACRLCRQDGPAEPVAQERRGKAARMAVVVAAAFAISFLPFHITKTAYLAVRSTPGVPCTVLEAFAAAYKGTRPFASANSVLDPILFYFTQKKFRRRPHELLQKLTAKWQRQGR
UniProt Q8IUC6: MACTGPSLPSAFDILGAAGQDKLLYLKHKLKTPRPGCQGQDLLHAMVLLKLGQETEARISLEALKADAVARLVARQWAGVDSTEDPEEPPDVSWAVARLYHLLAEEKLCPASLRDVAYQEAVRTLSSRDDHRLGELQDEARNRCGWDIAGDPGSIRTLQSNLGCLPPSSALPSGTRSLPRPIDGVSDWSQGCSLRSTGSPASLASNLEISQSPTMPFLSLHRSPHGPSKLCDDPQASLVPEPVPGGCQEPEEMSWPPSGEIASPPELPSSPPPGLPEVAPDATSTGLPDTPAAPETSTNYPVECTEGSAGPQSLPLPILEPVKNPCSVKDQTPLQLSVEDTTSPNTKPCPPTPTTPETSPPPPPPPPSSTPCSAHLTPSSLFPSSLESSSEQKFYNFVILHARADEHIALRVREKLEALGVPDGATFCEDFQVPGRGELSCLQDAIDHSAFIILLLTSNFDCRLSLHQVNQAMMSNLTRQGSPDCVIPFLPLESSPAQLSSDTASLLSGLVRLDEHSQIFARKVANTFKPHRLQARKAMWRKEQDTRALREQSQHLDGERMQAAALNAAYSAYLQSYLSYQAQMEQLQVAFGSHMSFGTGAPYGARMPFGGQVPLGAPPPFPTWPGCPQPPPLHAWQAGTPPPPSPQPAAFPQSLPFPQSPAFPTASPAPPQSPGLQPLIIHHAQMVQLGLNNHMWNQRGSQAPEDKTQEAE
UniProt P32121: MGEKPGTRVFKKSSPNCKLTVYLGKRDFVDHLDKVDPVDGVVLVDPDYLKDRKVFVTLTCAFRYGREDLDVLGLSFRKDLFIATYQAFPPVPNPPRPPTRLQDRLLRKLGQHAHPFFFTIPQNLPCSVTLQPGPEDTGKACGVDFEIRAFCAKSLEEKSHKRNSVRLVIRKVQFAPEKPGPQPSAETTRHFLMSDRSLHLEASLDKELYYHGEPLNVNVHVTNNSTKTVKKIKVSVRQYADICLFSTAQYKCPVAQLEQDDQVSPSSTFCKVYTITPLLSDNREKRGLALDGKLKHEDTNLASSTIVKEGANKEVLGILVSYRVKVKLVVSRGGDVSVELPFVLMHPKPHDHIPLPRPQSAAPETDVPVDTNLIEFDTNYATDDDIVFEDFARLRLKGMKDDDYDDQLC

binding	Substance
binds	TIR-domain-containing adapter-inducing interferon-β (from UniProt Q8IUC6 1-712)
binds	β-arrestin 2 (from UniProt P32121 1-409)
